According to patent publication US20090053196A1:
Results are given in words; binding and its absence hold for the method and conditions named. Binding seen in cells or lysates may run through a third protein. Some results given as binding are weak or reduced against the parent protein; the word gives no strength. Sequences can lack the tags named with a protein.

Assays:
[1] = target: T1, GST-UFD-2 (Caenorhabditis elegans) (UniProt Q09349); assay: pull-down on immobilized UFD-2, SDS-PAGE
T1 sequence (looked up): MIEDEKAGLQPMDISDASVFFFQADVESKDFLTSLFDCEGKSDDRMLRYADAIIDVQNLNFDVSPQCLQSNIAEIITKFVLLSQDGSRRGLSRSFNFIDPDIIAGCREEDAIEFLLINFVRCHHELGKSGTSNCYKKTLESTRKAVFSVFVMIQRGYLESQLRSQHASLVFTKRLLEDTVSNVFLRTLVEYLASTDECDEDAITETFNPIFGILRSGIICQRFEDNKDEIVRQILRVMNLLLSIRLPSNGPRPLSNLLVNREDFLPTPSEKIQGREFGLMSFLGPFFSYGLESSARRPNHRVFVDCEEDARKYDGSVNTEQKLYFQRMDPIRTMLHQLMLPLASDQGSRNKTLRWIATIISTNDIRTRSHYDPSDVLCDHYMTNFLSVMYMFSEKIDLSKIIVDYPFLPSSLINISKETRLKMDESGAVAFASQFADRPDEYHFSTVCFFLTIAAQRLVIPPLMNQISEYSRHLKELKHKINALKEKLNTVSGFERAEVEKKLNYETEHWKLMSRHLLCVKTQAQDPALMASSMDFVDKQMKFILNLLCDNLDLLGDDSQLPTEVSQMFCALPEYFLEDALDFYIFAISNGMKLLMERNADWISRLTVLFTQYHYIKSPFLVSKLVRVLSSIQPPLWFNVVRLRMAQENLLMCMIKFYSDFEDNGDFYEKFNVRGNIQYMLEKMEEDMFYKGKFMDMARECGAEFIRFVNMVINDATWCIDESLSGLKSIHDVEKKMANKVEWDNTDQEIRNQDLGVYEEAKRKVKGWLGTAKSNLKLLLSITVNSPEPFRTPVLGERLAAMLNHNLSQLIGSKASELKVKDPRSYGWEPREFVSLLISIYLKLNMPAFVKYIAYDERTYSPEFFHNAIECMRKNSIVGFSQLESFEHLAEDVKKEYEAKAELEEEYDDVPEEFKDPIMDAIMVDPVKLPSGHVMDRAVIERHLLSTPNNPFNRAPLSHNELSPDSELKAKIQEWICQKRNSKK

[2] = target: T1, GST-UFD-2 (Caenorhabditis elegans); assay: GST pull-down, Western blot with anti-myc
[3] = target: T1, GST-UFD-2 (Caenorhabditis elegans); assay: title of FIG. 1 (two-hybrid and GST pull-down)
[4] = target: T1, GST-UFD-2 (Caenorhabditis elegans); assay: GST pull-down, ^mycCHN-1 alone or together with UNC-45^FLAG
[5] = target: T1, GST-UFD-2 (Caenorhabditis elegans); assay: GST pull-down on immobilized GST-UFD-2, Western blot with anti-myc

binding [1]: binds
binding [2]: binds
binding [3]: binds
binding [4]: binds
binding [5]: binds
B1: myc-tagged CHN-1 (^mycCHN-1) (enzyme, not shown: small tags and cut ends)
chain: MSSGAEQHNTNGKKCYMNKRYDDAVDHYSKAIKVNPLPKYYQNRAMCYFQLNNLKMTEEDCKRALELSPNEVKPLYFLGNVFLQSKKYSEAISCLSKALYHNAVITNAPDIENALKRARHQKYEEEESKRIVQDVEFHTYLESLIEKDRQENSENPEELQRADMAKKRLTELTLATQEKRQNREVPEMLCGKITLELMKEPVIVPSGITYDREEIVQHLRRIGHFDPVTRKPLTENEIIPNYALKEVIEKFLDDNPWAKYEPGGMV
